{"source": "paper PMC7698587", "key": {"[1]": {"molecular_target": "PRCD-Myc-Ras bait (pMet425-PRCD-Myc-Ras) (mouse)", "assay": "two-hybrid; Ras recruitment system (cytoplasmic yeast two-hybrid) in cdc25-2 yeast; PRCD-Myc-Ras bait, myristoylated prey from a bovine retinal cDNA library; growth on GAL-LUM at 24 °C and 36 °C"}, "PRCD_GST p.P25T (mouse)": {"molecular_target": "PRCD_GST p.P25T (mouse)", "assay": "pull-down; in vitro translated TULP1_HA or TUB_HA mixed with 20 µg purified PRCD-GST beads in pull-down buffer (20 mM Hepes, 100 mM NaCl, 1% NP-40, 20% glycerol), 1 h at room temperature; blot with anti-HA; only the target purified"}, "PRCD_GST p.C2Y (mouse)": {"molecular_target": "PRCD_GST p.C2Y (mouse)", "assay": "pull-down; in vitro translated TULP1_HA or TUB_HA mixed with 20 µg purified PRCD-GST beads in pull-down buffer (20 mM Hepes, 100 mM NaCl, 1% NP-40, 20% glycerol), 1 h at room temperature; blot with anti-HA; only the target purified"}, "PRCD_Myc (mouse)": {"molecular_target": "PRCD_Myc (mouse)", "assay": "co-IP; lysates of co-transfected COS-7 cells in WCE buffer (25 mM HEPES pH 7.7, 0.3 M NaCl, 0.1% Triton X-100); anti-Myc tag antibody overnight at 4 °C, Protein A Sepharose; blot with anti-HA"}, "PRCD_GST (mouse)": {"molecular_target": "PRCD_GST (mouse)", "assay": "pull-down; in vitro translated TULP1_HA or TUB_HA mixed with 20 µg purified PRCD-GST beads in pull-down buffer (20 mM Hepes, 100 mM NaCl, 1% NP-40, 20% glycerol), 1 h at room temperature; blot with anti-HA; only the target purified"}}, "note": "These are yes or no findings as the source states them, for the method shown. A result given as binding can be weak or reduced; the word gives no strength. For some assays here: In cells and extracts the contact can be indirect."}
{"binder": "bovine TULP1 prey clone (amino acids 220-546) (domain or fragment, UniProt E1BHT9 220-546) PAAMFLVPGECPAEKTLKKKGTPKGSEEEKKEEGEEDDEAAAAMTKNSNQKGKAKGKGKKKAKEDRAPSPPVEVDEPQEFVLRPAPQGRTVRCRLTRDKKGMDRGLYPSYFLHLDTEKKVFLLAGRKRKRSKTANYLISSDPTNLSRGGENFIGKLRSNLLGNRFTVFDNGQNPHRGGSTDVGSLRQELAAVIYETNVLGFRGPRRMTVIIPGMNSDNERVPIRPRNASDGLLVRWQNKTLESLIELHNKPPIWNEDSGSYTLNFQGRVTQASVKNFQIVHADDPDYIVLQFGRVAEDAFTLDYRYPLCALQAFAIALSSFDGKLAC", "values": [{"measurement": "binding", "setting": "[1]", "value": "binds"}]}
{"binder": "TULP1_HA, in vitro translated (wild type, limits not stated) (protein, UniProt Q9Z273 1-543) MPLQEETLREVWASDSGHEEDCLSPEPPLRPKQRPAQGQKLRKKKPETPDSLESKPRKAGAGRRKHEEPPADSAEPRAAQTVYAKFLRDPEAKKRDPRENFLVARAPDLGGEENSEEDSDDDDNDDDEEEEEKKEGKKEKSSLPPKKAPKEREKKAKALGPRGDVGSPDAPRKPLRTKKKEVGEGTKLRKAKKKGPGETDKDPAGSPAALRKEFPAAMFLVGEGGAAEKGVKKKGPPKGSEEEKKEEEEEVEEEVASAVMKNSNQKGRAKGKGKKKVKEERASSPPVEVGEPREFVLQPAPQGRAVRCRLTRDKKGMDRGMYPSYFLHLDTEKKVFLLAGRKRKRSKTANYLISSDPTNLSRGGENFIGKLRSNLLGNRFTVFDNGQNPQRGGGGDVGSLRQELAAVVYETNVLGFRGPRRMTVIIPGMNSDNERVPIRPRNASDGLLVRWQNKTLESLIELHNKPPIWNEDSGSYTLNFQGRVTQASVKNFQIVHADDPDYIVLQFGRVAEDAFTLDYRYPLCALQAFAIALSSFDGKLACE", "values": [{"measurement": "binding", "setting": "PRCD_GST p.P25T (mouse)", "value": "binds"}, {"measurement": "binding", "setting": "PRCD_GST p.C2Y (mouse)", "value": "binds"}]}
{"binder": "TULP1_HA (full-length mouse TULP1) (protein, UniProt Q9Z273 1-543) MPLQEETLREVWASDSGHEEDCLSPEPPLRPKQRPAQGQKLRKKKPETPDSLESKPRKAGAGRRKHEEPPADSAEPRAAQTVYAKFLRDPEAKKRDPRENFLVARAPDLGGEENSEEDSDDDDNDDDEEEEEKKEGKKEKSSLPPKKAPKEREKKAKALGPRGDVGSPDAPRKPLRTKKKEVGEGTKLRKAKKKGPGETDKDPAGSPAALRKEFPAAMFLVGEGGAAEKGVKKKGPPKGSEEEKKEEEEEVEEEVASAVMKNSNQKGRAKGKGKKKVKEERASSPPVEVGEPREFVLQPAPQGRAVRCRLTRDKKGMDRGMYPSYFLHLDTEKKVFLLAGRKRKRSKTANYLISSDPTNLSRGGENFIGKLRSNLLGNRFTVFDNGQNPQRGGGGDVGSLRQELAAVVYETNVLGFRGPRRMTVIIPGMNSDNERVPIRPRNASDGLLVRWQNKTLESLIELHNKPPIWNEDSGSYTLNFQGRVTQASVKNFQIVHADDPDYIVLQFGRVAEDAFTLDYRYPLCALQAFAIALSSFDGKLACE", "values": [{"measurement": "binding", "setting": "PRCD_Myc (mouse)", "value": "binds"}]}
{"binder": "TUB_HA (full-length TUB) (protein, UniProt P50586-1 1-505) MTSKPHSDWIPYSVLDDEGSNLRQQKLDRQRALLEQKQKKKRQEPLMVQANADGRPRSRRARQSEEQAPLVESYLSSSGSTSYQVQEADSIASVQLGATRPPAPASAKKSKGAAASGGQGGAPRKEKKGKHKGTSGPATLAEDKSEAQGPVQILTVGQSDHDKDAGETAAGGGAQPSGQDLRATMQRKGISSSMSFDEDEDEDENSSSSSQLNSNTRPSSATSRKSIREAASAPSPAAPEPPVDIEVQDLEEFALRPAPQGITIKCRITRDKKGMDRGMYPTYFLHLDREDGKKVFLLAGRKRKKSKTSNYLISVDPTDLSRGGDSYIGKLRSNLMGTKFTVYDNGVNPQKASSSTLESGTLRQELAAVCYETNVLGFKGPRKMSVIVPGMNMVHERVCIRPRNEHETLLARWQNKNTESIIELQNKTPVWNDDTQSYVLNFHGRVTQASVKNFQIIHGNDPDYIVMQFGRVAEDVFTMDYNYPLCALQAFAIALSSFDSKLACE", "values": [{"measurement": "binding", "setting": "PRCD_Myc (mouse)", "value": "binds"}]}
{"binder": "truncated TULP1_HA, C-terminal part (aa 289-543) (domain or fragment, UniProt Q9Z273 290-543) GEPREFVLQPAPQGRAVRCRLTRDKKGMDRGMYPSYFLHLDTEKKVFLLAGRKRKRSKTANYLISSDPTNLSRGGENFIGKLRSNLLGNRFTVFDNGQNPQRGGGGDVGSLRQELAAVVYETNVLGFRGPRRMTVIIPGMNSDNERVPIRPRNASDGLLVRWQNKTLESLIELHNKPPIWNEDSGSYTLNFQGRVTQASVKNFQIVHADDPDYIVLQFGRVAEDAFTLDYRYPLCALQAFAIALSSFDGKLACE", "values": [{"measurement": "binding", "setting": "PRCD_GST (mouse)", "value": "binds"}]}
{"binder": "truncated TUB_HA, tubby domain (aa 248-506) (domain or fragment, UniProt P50586-1 248-505) QDLEEFALRPAPQGITIKCRITRDKKGMDRGMYPTYFLHLDREDGKKVFLLAGRKRKKSKTSNYLISVDPTDLSRGGDSYIGKLRSNLMGTKFTVYDNGVNPQKASSSTLESGTLRQELAAVCYETNVLGFKGPRKMSVIVPGMNMVHERVCIRPRNEHETLLARWQNKNTESIIELQNKTPVWNDDTQSYVLNFHGRVTQASVKNFQIIHGNDPDYIVMQFGRVAEDVFTMDYNYPLCALQAFAIALSSFDSKLACE", "values": [{"measurement": "binding", "setting": "PRCD_GST (mouse)", "value": "binds"}]}
{"binder": "truncated TULP1_HA, N-terminal part (aa 1-288) (domain or fragment, UniProt Q9Z273 1-288) MPLQEETLREVWASDSGHEEDCLSPEPPLRPKQRPAQGQKLRKKKPETPDSLESKPRKAGAGRRKHEEPPADSAEPRAAQTVYAKFLRDPEAKKRDPRENFLVARAPDLGGEENSEEDSDDDDNDDDEEEEEKKEGKKEKSSLPPKKAPKEREKKAKALGPRGDVGSPDAPRKPLRTKKKEVGEGTKLRKAKKKGPGETDKDPAGSPAALRKEFPAAMFLVGEGGAAEKGVKKKGPPKGSEEEKKEEEEEVEEEVASAVMKNSNQKGRAKGKGKKKVKEERASSPPVE", "values": [{"measurement": "binding", "setting": "PRCD_GST (mouse)", "value": "no binding"}]}
